{"source": "PubChem BioAssay AID504834", "about": "(National Center for Advancing Translational Sciences (NCATS), 2011)", "note": "The whole screen tested about 320,000 compounds, of which about 22,000 (6.9%) were called active. This list was built around the results that the source calls inconclusive (neither active nor inactive); the mix of calls is not that of the screen. The call rests on the fitted dose curve; in most records, active means well fitted inhibition curve with a large enough effect; inconclusive means small, poorly fitted or top-dose-only effect, or another doubt; inactive means no such curve, though single readings can be large or run the other way. Potencies beside an inconclusive call are fits to weak or partial responses and may not hold up. On the % scale 0 is the no-effect control and ±100 the full control effect; potency means the concentration at half of the fitted maximal effect."}
{"experiment": "Primary qHTS for delayed death inhibitors of the malarial parasite plastid, 96 hour incubation", "details": "P. falciparum luciferase reporter growth; series mostly up to 28.7 µM", "summary_of_the_method": "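Cell-based qHTS: luciferase-tagged P. falciparum in erythrocytes (2% hematocrit, 0.05% parasitemia final) incubated with compounds for 96 hours, 37 C, 5% CO2; luciferase detection reagent then added and luminescence measured.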"}
{"smiles": "NC(=S)N/N=C/c1ccc2cccc(OCc3ccccc3)c2n1", "Potency": "inconclusive: 14.7 µM [inhibitor, partial curve, poor fit]"}
{"smiles": "OC1(C2(O)CC(c3ccccc3)ON2)CCCCC1", "note": "(configuration not stated)", "Potency": "inconclusive: 18.5 µM [inhibitor, single point]"}
{"smiles": "COc1ccc(S(=O)(=O)N2CCOCC2)cc1C(=O)NC1CCCCC1", "Potency": "active: 4.65 µM"}
{"smiles": "COc1cc2cnc(-c3ccccc3)c(-c3cccc(C(F)(F)F)c3)c2cc1OC", "Potency": "inconclusive: 18.5 µM [inhibitor, single point]"}
{"smiles": "COc1ccccc1C(=O)Oc1ccc(C(C)C)cc1", "Potency": "inactive"}
{"smiles": "COc1ccc(CN2CCN(C(=O)COc3cccc(C)c3)CC2)c(OC)c1", "Potency": "inconclusive: 11.7 µM [inhibitor, single point]"}
{"smiles": "CCOC(=O)c1sc(-c2ccc(OC)cc2)cc1N", "activity change, negative = inhibition": "inactive: -9.32% [at 5.75 µM]"}
{"smiles": "CCCCn1c(O)c(C(C)=Nc2ccc(C(=O)O)cc2)c(=O)[nH]c1=O", "Potency": "inconclusive: 18.5 µM [inhibitor, single point]"}
{"smiles": "Cc1ccc(C2(C)NC(=O)N(CC(=O)NC3CCCCC3)C2=O)cc1", "note": "(configuration not stated)", "Potency": "inconclusive: 5.86 µM [inhibitor, partial curve, poor fit]"}
{"smiles": "Cc1sc2nc(SCC(=O)c3cc(C)n(CC4CCCO4)c3C)n(C(C)C)c(=O)c2c1C", "note": "(configuration not stated)", "Potency": "active: 8.28 µM"}
{"smiles": "COCC1CCN(C(=O)C2CCC(=O)N(C3CCCCCC3)C2)CC1", "note": "(configuration not stated)", "Potency": "inconclusive: 9.28 µM [inhibitor, partial curve]"}
{"smiles": "CC(=O)c1cccc(NC(=O)COC(=O)CCC(=O)c2cccs2)c1", "Potency": "inconclusive: 0.329 µM [inhibitor, full curve, poor fit]"}
{"smiles": "CCC(=O)OCCNc1cc(SCCC(=O)OC)c2nonc2c1[N+](=O)[O-]", "Potency": "inconclusive: 4.15 µM [inhibitor, single point]"}
{"smiles": "O=C(/C=C/c1cccc([N+](=O)[O-])c1)NC(=S)Nc1cccc(NC(=O)c2ccccc2Cl)c1", "Potency": "inactive"}
{"smiles": "Nc1nonc1-n1nnc(C(=O)N/N=C/c2ccc(OCc3ccccc3)cc2)c1CNc1ccccc1", "Potency": "inconclusive: 13.1 µM [inhibitor, partial curve]"}
{"smiles": "O=C(NCCOC(=O)c1ccccc1)c1ccc([N+](=O)[O-])cc1", "Potency": "inconclusive: 20.8 µM [inhibitor, single point]"}
{"smiles": "CCN(C(=O)CSc1nnc(C2CC2)n1-c1ccccc1)C1CCS(=O)(=O)C1", "note": "(configuration not stated)", "Potency": "inactive"}
{"smiles": "Cc1ccc(SCCNC(=O)c2ccccc2F)cc1", "Potency": "inconclusive: 13.1 µM [inhibitor, partial curve, poor fit]"}
{"smiles": "CCOC(=O)c1c(C)[nH]c(C(=O)OCC(=O)Nc2sccc2C(N)=O)c1C", "Potency": "inconclusive: 1.85 µM [inhibitor, full curve]"}
{"smiles": "Cc1ccc(N2CC(C(=O)Nc3cccc(C(=O)NC4CC4)c3)CC2=O)cc1", "note": "(configuration not stated)", "Potency": "inconclusive: 1.31 µM [inhibitor, full curve]"}
{"smiles": "CC(C)n1c(SCC(=O)Nc2ccccc2N2CCCCC2)nc2c1c(=O)n(C)c(=O)n2C", "Potency": "inconclusive: 18.5 µM [inhibitor, single point]"}
{"smiles": "O=Nc1ccc(NOC(=O)c2ccc(Br)cc2)cc1", "Potency": "inactive"}
{"smiles": "O=C(COc1ccccc1)c1cn(Cc2ccccc2)c2ccccc12", "Potency": "inactive"}
{"smiles": "Cc1cccc(NC(=S)NC2CC3CCCC(C2)N3CC(C)C)c1C", "note": "(configuration not stated)", "Potency": "inconclusive: 5.22 µM [inhibitor, partial curve, poor fit]"}
{"smiles": "CCOC(=O)c1ccc(CC2S/C(=C(\\C#N)C(C)=O)NC2=O)cc1", "note": "(configuration not stated)", "Potency": "inconclusive: 2.62 µM [inhibitor, single point]"}
{"smiles": "COc1cc2c(cc1OC)CN(CC(=O)Nc1ccc(Cl)c(S(=O)(=O)N(C)C)c1)CC2", "Potency": "inconclusive: 18.5 µM [inhibitor, single point]"}
{"smiles": "COCCC1CCCCN1Cc1cn(-c2ccccc2)nc1-c1ccc2c(c1)OCO2", "note": "(configuration not stated)", "Potency": "inconclusive: 13.1 µM [inhibitor, single point]"}
{"smiles": "O=C(NNC(=S)Nc1ccc(F)cc1)C1[C@H]2CCCC[C@@H]12", "note": "(some centres not stated)", "Potency": "inactive"}
{"smiles": "C=CCN1/C(=C2/SC(=S)N(C)C2=O)Sc2ccccc21", "Potency": "inactive"}
{"smiles": "COc1ccc(NC(=O)CN(C)C(=O)c2oc3c(ccc4ccccc43)c2C)cc1", "Potency": "active: 0.185 µM"}
{"smiles": "Cc1c(Cl)cnc(NC(=O)COC(=O)C2CC3CCCC(C2)C3=O)c1Cl", "note": "(configuration not stated)", "Potency": "inconclusive: 0.0928 µM [inhibitor, full curve, poor fit]"}
{"smiles": "O=C(CCC1CCCC1)NNC(=O)c1cccc(Cl)c1", "Potency": "inconclusive: 4.15 µM [inhibitor, single point]"}
{"smiles": "COc1ccc(NC(=O)Cc2nc3ccccc3[nH]2)cc1", "Potency": "inconclusive: 16.5 µM [inhibitor, single point]"}
{"smiles": "NC(=O)c1ccc(NC(=O)COC(=O)C2(c3cccc(F)c3)CCCC2)cc1", "Potency": "inactive"}
{"smiles": "COc1ccc(Nc2nnc(SCC(=O)/C=C3/N(C)c4ccccc4C3(C)C)s2)cc1", "Potency": "active: 7.38 µM"}
{"smiles": "Cc1ccc(C(=O)Nc2ccc(S(=O)(=O)NC3=NCCCCC3)cc2)c(C)c1", "Potency": "inconclusive: 9.28 µM [inhibitor, partial curve, poor fit]"}
{"smiles": "O=C(/C=C/c1ccccc1)c1ccc(NC2=NCCCS2)cc1", "Potency": "inactive"}
{"smiles": "Cn1c(=O)c2c(n(Cc3ccccc3)c1=O)NC(=O)C2CC(=O)NCc1cccc(Cl)c1", "note": "(configuration not stated)", "Potency": "inconclusive: 0.0828 µM [inhibitor, full curve]"}
{"smiles": "O=C(CSc1nnc(Cc2csc(Nc3cccc(Cl)c3)n2)o1)N1CCc2ccccc21", "Potency": "inconclusive: 18.5 µM [inhibitor, partial curve, poor fit]"}
{"smiles": "Cc1ccc(C(=O)NC(=S)Nc2ccc(N3CCOCC3)cc2)cc1C", "Potency": "inconclusive: 13.1 µM [inhibitor, single point]"}
{"smiles": "COc1ccc(-c2nn(-c3ccccc3)cc2C(=O)NC(=S)NNC(=O)c2ccncc2)cc1", "Potency": "inconclusive: 20.8 µM [inhibitor, single point]"}
{"smiles": "O=C(CN1C(=O)NC2(CCCC2)C1=O)NCC1CCCO1", "note": "(configuration not stated)", "Potency": "inactive"}
{"smiles": "Cc1ccc(NC(=O)C2(N(CC(C)C)C(=O)Cn3nnnc3N)CCCCC2)cc1", "Potency": "inconclusive: 18.5 µM [inhibitor, single point]"}
{"smiles": "O=C(Cc1cccs1)NCCN1CCOCC1", "Potency": "active: 4.15 µM"}
{"smiles": "C=CCn1c(SCC(=O)NC2CC2)nc2ccccc2c1=O", "Potency": "inconclusive: 0.0165 µM [inhibitor, full curve, poor fit]"}
{"smiles": "Cc1ccc(/C=C2\\SC(=S)N(CCCC(=O)N3CCOCC3)C2=O)cc1", "Potency": "inactive"}
{"smiles": "CCOC(=O)CC(=O)CSc1nc2ccccc2c(=O)n1-c1ccc(C(=O)NCCOC)cc1", "Potency": "inconclusive: 2.62 µM [inhibitor, full curve, poor fit]"}
{"smiles": "Cc1ccc(Cl)cc1N1CCN(C(=O)C2CCN(c3nnc(-n4cccc4)s3)CC2)CC1", "Potency": "inconclusive: 18.5 µM [inhibitor, single point]"}
{"smiles": "COc1ccc(-c2cc(C(=O)Nc3ccc(C(N)=O)cc3)c3ccccc3n2)cc1", "Potency": "inconclusive: 14.7 µM [inhibitor, single point]"}
{"smiles": "CNC(=S)N/N=C/c1cn(Cc2c(F)cccc2Cl)c2ccccc12", "Potency": "inconclusive: 18.5 µM [inhibitor, single point]"}
{"smiles": "N#CCSc1nnc(Cc2cccs2)n1C1CCCCC1", "Potency": "inconclusive: 5.86 µM [inhibitor, partial curve, poor fit]"}
{"smiles": "CCOc1ccc(N(Cc2nnc3n2CCCCC3)C(=O)Nc2cccc(C)c2)cc1", "Potency": "inactive"}
{"smiles": "Cc1c(Cc2ccccc2)c(=O)oc2cc(OCC(=O)NCC(O)c3ccccc3)ccc12", "note": "(configuration not stated)", "Potency": "inconclusive: 13.1 µM [inhibitor, partial curve]"}
{"smiles": "COc1cccc2cc(CC(=O)c3ccc(C)c(C)c3)c(=O)oc12", "Potency": "inconclusive: 6.57 µM [inhibitor, partial curve, poor fit]"}
{"smiles": "Cc1cccc(OCC(=O)Nc2nnc(S(=O)(=O)N3CCCCC3)s2)c1", "Potency": "active: 7.38 µM"}
{"smiles": "Cc1ccc2oc(C(=O)Nc3ccc(S(=O)(=O)Nc4ncccn4)cc3)c(C)c2c1", "Potency": "inconclusive: 10.4 µM [inhibitor, partial curve]"}
{"smiles": "O=C(Oc1coc(CSc2ncccn2)cc1=O)c1ccc(Br)o1", "Potency": "inconclusive: 10.4 µM [inhibitor, single point]"}
{"smiles": "Cc1noc(/C=C/N(C)C)c1S(=O)(=O)N1CCN(c2ccc(F)cc2)CC1", "Potency": "inconclusive: 1.47 µM [inhibitor, full curve, poor fit]"}
{"smiles": "COc1ccc(CCN2C(=O)NC(NS(=O)(=O)c3ccccc3)(C(F)(F)F)C2=O)cc1OC", "note": "(configuration not stated)", "Potency": "inconclusive: 11.7 µM [inhibitor, single point]"}
{"smiles": "Cn1c(Cn2cnc([N+](=O)[O-])n2)nnc1SCC(=O)Nc1ccccc1", "Potency": "active: 2.94 µM"}
{"smiles": "CC(=O)c1ccc(NC(=O)CCSCCC(=O)Nc2ccc(C(C)=O)cc2)cc1", "Potency": "inactive"}
{"smiles": "N=c1oc2ccccc2cc1-c1nc(-c2ccc(Cl)cc2)cs1", "Potency": "inactive"}
{"smiles": "O=C(Cn1cnc2cc([N+](=O)[O-])ccc2c1=O)Nc1cccc2ccccc12", "Potency": "inconclusive: 18.5 µM [inhibitor, single point]"}
{"smiles": "COc1ccccc1-c1ccc(SCc2ccc([N+](=O)[O-])cc2)nn1", "Potency": "inconclusive: 2.94 µM [inhibitor, full curve, poor fit]"}
{"smiles": "COC(=O)c1ccccc1NC(=O)CSc1nc(N)cc(=O)[nH]1", "Potency": "inconclusive: 11.7 µM [inhibitor, partial curve, poor fit]"}
{"smiles": "CC(=O)N[C@@H](CC(=O)O)C(=O)O", "Potency": "inactive"}
{"smiles": "CCOC(=O)C(NC(=O)OC(C)C)(Nc1nccs1)C(F)(F)F", "note": "(configuration not stated)", "Potency": "inconclusive: 10.4 µM [inhibitor, partial curve, poor fit]"}
